These are yes or no findings as the source states them, for the method shown. In cells and extracts the contact can be indirect. Some results given as binding are weak or reduced against the parent protein; the word gives no strength.

Chains of the proteins cited; added tags and fusions are not shown.
UniProt P35222: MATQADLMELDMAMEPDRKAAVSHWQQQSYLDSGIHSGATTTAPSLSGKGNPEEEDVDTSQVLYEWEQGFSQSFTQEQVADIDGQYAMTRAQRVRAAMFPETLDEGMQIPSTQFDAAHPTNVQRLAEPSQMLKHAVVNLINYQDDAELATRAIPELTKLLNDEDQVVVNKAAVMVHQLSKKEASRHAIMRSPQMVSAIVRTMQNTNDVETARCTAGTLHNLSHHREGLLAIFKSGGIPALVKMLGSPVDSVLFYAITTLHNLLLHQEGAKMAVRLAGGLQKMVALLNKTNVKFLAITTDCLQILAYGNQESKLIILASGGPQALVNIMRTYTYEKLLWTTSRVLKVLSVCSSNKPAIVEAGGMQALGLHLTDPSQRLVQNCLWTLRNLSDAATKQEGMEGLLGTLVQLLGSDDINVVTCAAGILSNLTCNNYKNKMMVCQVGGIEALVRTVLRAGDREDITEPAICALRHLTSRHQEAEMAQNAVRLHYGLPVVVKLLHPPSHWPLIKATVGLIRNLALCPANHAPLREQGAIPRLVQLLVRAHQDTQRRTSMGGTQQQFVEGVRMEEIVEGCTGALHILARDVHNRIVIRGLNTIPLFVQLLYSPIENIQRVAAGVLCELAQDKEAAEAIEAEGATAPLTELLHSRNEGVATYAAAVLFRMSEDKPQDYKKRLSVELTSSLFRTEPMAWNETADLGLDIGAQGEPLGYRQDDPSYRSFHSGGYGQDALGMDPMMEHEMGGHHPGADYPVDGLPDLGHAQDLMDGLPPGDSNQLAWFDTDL
UniProt Q16665: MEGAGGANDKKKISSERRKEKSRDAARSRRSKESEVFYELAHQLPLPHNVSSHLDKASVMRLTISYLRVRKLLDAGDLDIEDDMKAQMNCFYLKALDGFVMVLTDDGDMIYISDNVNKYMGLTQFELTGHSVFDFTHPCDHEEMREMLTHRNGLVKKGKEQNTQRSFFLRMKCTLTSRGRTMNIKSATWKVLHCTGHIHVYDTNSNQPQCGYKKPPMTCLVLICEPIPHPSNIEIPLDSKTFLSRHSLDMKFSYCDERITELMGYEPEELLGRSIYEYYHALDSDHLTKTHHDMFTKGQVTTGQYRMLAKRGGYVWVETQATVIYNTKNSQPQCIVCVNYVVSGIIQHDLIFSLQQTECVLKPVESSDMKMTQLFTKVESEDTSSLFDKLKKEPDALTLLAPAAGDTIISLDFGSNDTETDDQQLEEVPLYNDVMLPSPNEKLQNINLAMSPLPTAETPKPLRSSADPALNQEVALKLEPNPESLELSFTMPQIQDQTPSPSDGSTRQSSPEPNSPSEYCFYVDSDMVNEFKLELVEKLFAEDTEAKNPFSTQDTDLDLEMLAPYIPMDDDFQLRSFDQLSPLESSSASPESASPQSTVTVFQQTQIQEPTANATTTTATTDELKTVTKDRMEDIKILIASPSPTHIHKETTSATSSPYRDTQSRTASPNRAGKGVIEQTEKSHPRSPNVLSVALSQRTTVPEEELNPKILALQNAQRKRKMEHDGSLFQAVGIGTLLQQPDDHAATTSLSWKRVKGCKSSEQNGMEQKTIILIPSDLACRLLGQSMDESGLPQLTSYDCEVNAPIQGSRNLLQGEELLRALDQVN
UniProt P36402: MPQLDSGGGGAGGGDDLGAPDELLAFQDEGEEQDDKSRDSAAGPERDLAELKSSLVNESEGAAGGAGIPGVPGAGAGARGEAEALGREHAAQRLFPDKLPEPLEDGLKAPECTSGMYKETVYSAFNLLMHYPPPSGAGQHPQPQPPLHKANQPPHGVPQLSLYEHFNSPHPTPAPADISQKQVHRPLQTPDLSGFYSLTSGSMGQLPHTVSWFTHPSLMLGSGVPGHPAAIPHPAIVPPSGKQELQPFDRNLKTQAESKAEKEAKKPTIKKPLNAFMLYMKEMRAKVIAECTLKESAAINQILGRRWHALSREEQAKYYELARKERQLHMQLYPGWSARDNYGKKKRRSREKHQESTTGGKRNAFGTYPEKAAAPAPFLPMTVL

Experimental findings from PMC6691379 are described below.

Assay [1] concerns the target β-catenin (human (endogenous in primary GBM cells)) (UniProt P35222). Kind of assay: co-IP; lysates of primary GBM cells treated or not with Wnt3a (30 ng/ml) in hypoxia (2% O2) or normoxia (20% O2); lysis buffer with Chapso 1%; IP with anti-β-catenin or anti-HIF-1α and protein A/G microbeads, irrelevant IgGs as control; Western blot; for the HIF-1α IP only hypoxic cells are shown. Background: A western blot detects proteins with antibodies after separation by electrophoresis.

For assay [2], the target named is Hypoxia Inducible Factor (HIF)-1α (human (endogenous in primary GBM cells)) (UniProt Q16665). The description is as above.

As to “Hypoxia Inducible Factor (HIF)-1α (from UniProt Q16665 1-826)”, the binding entry in assay [1] is on record as “binds”.
Take TCF1 (from UniProt P36402 1-384): the binding entry in assay [2] and in assay [1] was “binds” in each case.
